# Measured values taken from PubChem BioAssay AID1688 (National Center for Advancing Translational Sciences (NCATS), 2009).
# The whole screen tested about 220,000 compounds, of which about 2,400 (1.1%) were called active. The shares of active, inactive and inconclusive entries below differ from those in the screen. The call rests on the fitted dose curve; in most records, active means well fitted inhibition curve with a large enough effect; inconclusive means small, poorly fitted or top-dose-only effect, or effect the other way; inactive means no such curve, though single readings can be large or run the other way. Potencies beside an inconclusive call are fits to weak or partial responses and may not hold up.
# Assay: qHTS Multiplex Assay to Identify Dual Action Probes in a Cell Model of Huntington: Aggregate Formation (GFP); further: nearly all actives have a fitted effect of over 60% in size
# Conditions: PC12 HttQ103-GFP aggregates, Acumen cytometry, 40 h; activity change, negative = inhibition: at 46.1 µM (top of the series) unless noted
# Method in brief: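 Inducible Q103 Huntingtin exon 1–GFP PC12 line, 1500 cells/well in phenol red free DMEM with 5% equine and 5% calf serum. Tebufenozide 100 nM induced expression; compounds titrated; aggregates quantified by cytometry.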
# On the % scale 0 is the no-effect control and ±100 the full control effect; potency means the concentration at half of the fitted maximal effect.
Compound,"activity change, negative = inhibition",Potency
CCOC(=O)CNC(=O)CN1CCCN(S(=O)(=O)c2ccc(Br)s2)CC1,inactive: -2.1%,–
COc1cccc(N(C(C)=O)c2nc(C)cc(C)c2C#N)c1,–,"inconclusive: 0.794 µM [activator, single point]"
Cc1ccc(S(=O)(=O)N2CCN(C(=O)C3Cc4ccccc4CN3C(=O)c3ccco3)CC2)cc1 (stereo not given),inactive: -10.3%,–
O=C(C1CCN(c2nnc(-n3cccc3)s2)CC1)N1CCOCC1,–,"inconclusive: 1.12 µM [activator, single point]"
CCN1CCN(CC(=O)c2c[nH]c3ccc(C)cc23)CC1,–,"inconclusive: 0.891 µM [inhibitor, full curve]"
C=CCOc1nc2c(c(=O)n(C)c(=O)n2C)n1Cc1c(Cl)cccc1Cl,–,"inconclusive: 35.5 µM [inhibitor, single point]"
C/C(=N\NC(=O)C(=O)Nc1cccc(Cl)c1)c1ccncc1,–,"inconclusive: 7.94 µM [inhibitor, partial curve]"
O=S(Cc1cc(Sc2ccccc2)nc(-c2ccccc2)n1)c1ccccc1 (stereo not given),–,"inconclusive: 25.1 µM [inhibitor, partial curve]"
Clc1ccc(Cn2ncc3c(N4CCCCC4)ncnc32)c(Cl)c1,–,"inconclusive: 35.5 µM [inhibitor, single point]"
C=C(C)CSc1nnc2n(C)c(=O)c3c4c(sc3n12)CCC4,–,"inconclusive: 0.708 µM [activator, single point]"
Cc1ccc(O)c(-c2cc(C(=O)Nc3ccc(S(=O)(=O)N4CC(C)OC(C)C4)cc3)[nH]n2)c1 (stereo not given),inactive: -7.35%,–
CC1(C)CC(=O)C(C=NCC(O)c2ccccc2)=C(O)C1 (stereo not given),–,"inconclusive: 0.794 µM [inhibitor, partial curve]"
CC1CCN(S(=O)(=O)c2ccc3[nH]c(=O)cc(C(=O)O)c3c2)CC1,–,"inconclusive: 5.62 µM [inhibitor, single point]"
COc1cc(CC(=O)OCC(=O)Nc2ccc(S(=O)(=O)N3CCCC3)cc2)cc(OC)c1OC,inactive: 6.07%,–
Cc1ccc(NS(=O)(=O)c2cc(NC(=O)c3ccc4c(c3)NC(=O)CS4)ccc2Cl)c(C)c1,–,"inconclusive: 35.5 µM [inhibitor, single point]"
Cc1cc(C)c2nc(Cl)c(C3NC(=O)c4ccccc4N3)cc2c1 (stereo not given),–,"inconclusive: 11.2 µM [activator, partial curve, poor fit]"
Cc1occc1-c1nnc(SCC(=O)O)n1-c1ccccc1,inactive: 4.32% [at 9.22 µM],–
COc1ccccc1-c1cc(C(F)(F)F)nc(S(=O)(=O)CCCC(=O)O)n1,inactive: -81%,–
O=C(NCCNCCO)c1c(O)c2cccc3c2n(c1=O)CCC3,–,"inconclusive: 25.1 µM [inhibitor, single point]"
CCCCCc1c(C)nc(Nc2ccccc2)[nH]c1=O,–,"inconclusive: 35.5 µM [inhibitor, single point]"
O=C(CSC(=S)N1CCOCC1)Nc1nc(=O)c2ccccc2s1,inactive: -3.05%,–
O=C(NNC(=S)NC(=O)c1ccco1)c1ccc(NC(=O)c2ccccc2)cc1,–,"inconclusive: 3.55 µM [inhibitor, partial curve, poor fit]"
O=C(Nc1ccc(Br)c(Cl)c1)C1CC1,–,"inconclusive: 35.5 µM [inhibitor, single point]"
O=c1c2ccccc2nc2n1-c1ccccc1CCC2,inactive: -22.6%,–

Compound,"activity change, negative = inhibition",Potency
COc1ccc(-n2cc(-c3ccc(OC(F)F)cc3)[n+]3c2CCCCC3)cc1,–,active: 15.8 µM
COc1ccc(C2=CC(c3ccc(C)cc3)n3nnnc3N2)cc1 (stereo not given),–,"inconclusive: 25.1 µM [inhibitor, single point]"
Cc1ccc(Cl)cc1N1CCN(C(=O)CN(C2CCCCC2)S(C)(=O)=O)CC1,–,"inconclusive: 11.2 µM [inhibitor, single point]"
COc1ccc(Br)cc1S(=O)(=O)n1ccnc1C,–,"inconclusive: 0.112 µM [activator, full curve]"
CCN(CC#CCC1(O)c2ccccc2-c2ccccc21)CCO,inactive: -6.15%,–
Cc1cc(C)c2c(c1)[C@@H]1C=CC[C@@H]1[C@H](c1ccc(S(=O)(=O)N3CCOCC3)cc1)N2,–,"inconclusive: 3.98 µM [activator, partial curve, poor fit]"
CCOC(=O)c1[nH]c(C)c(C(=O)Nc2ccccc2C)c1C,–,"inconclusive: 35.5 µM [activator, single point]"
Cc1ccccc1Oc1ccc(NC(=O)C2CC=CCC2C(=O)O)cc1 (stereo not given),inactive: -9.76%,–
O=C1Nc2ccccc2/C1=C/c1cccnc1,–,"inconclusive: 15.8 µM [inhibitor, partial curve]"
Cc1ccc(N(CC(=O)NCCSCc2ccco2)S(=O)(=O)c2ccc(F)cc2)cc1,inactive: -9.37% [at 9.22 µM],–
COc1ccc(N2CCN(C(=O)c3ccc(NS(=O)(=O)c4ccc(F)c(F)c4)cc3)CC2)cc1,–,active: 10 µM
Cn1c2c(c(=O)[nH]c1=O)C(c1ccc(O)cc1)C1=C(N2)c2ccccc2C1=O (stereo not given),–,"inconclusive: 12.6 µM [inhibitor, partial curve]"
O=S(=O)(c1ccccc1)N(CC(O)Cn1c2ccccc2c2ccccc21)c1ccccc1 (stereo not given),–,"inconclusive: 35.5 µM [inhibitor, single point]"
CCOc1ccc(-c2nnc(Nc3ccc(OC)c(C(=O)N4CCCCC4)c3)c3ccccc23)cc1,–,"inconclusive: 11.2 µM [inhibitor, single point]"
CCOC(=O)c1cnn(-c2c(Cc3ccccc3)c(C)nc3c(-c4ccccc4)c(C)nn23)c1N,inactive: 12.1%,–
CCNc1nc(NCC)nc(N(n2cnnc2)S(=O)(=O)c2ccc(C)cc2)n1,–,"inconclusive: 5.01 µM [inhibitor, single point]"
CCOc1ccc(-n2c(SCc3ccc([N+](=O)[O-])cc3)nnc2-c2ccc(OC)cc2)cc1,–,"inconclusive: 14.1 µM [inhibitor, partial curve, poor fit]"
CCCC(=O)Nc1ccc(C(=O)NNC(=O)c2cccc([N+](=O)[O-])c2)cc1,inactive: 10.3% [at 9.22 µM],–
CCCSc1nsc(NC(=O)CC)n1,inactive: -16.7% [at 9.22 µM],–
CC1CCC(NC(=O)c2cnccn2)CC1 (stereo not given),inactive: 10.1%,–
Cc1nc(N2CCN(c3ccccn3)CC2)c2c(C)c(C(=O)Nc3ccc(F)cc3)sc2n1,–,"inconclusive: 14.1 µM [inhibitor, partial curve]"
Cc1nc2c(C)cccc2c(SC(=N)N)c1CC=C(Cl)Cl,inactive: -5.97% [at 9.22 µM],–
COc1ccc(OC)c2[nH]c(=O)c(CCNS(=O)(=O)c3ccccc3)cc12,inactive: 9.76%,–
O=C(N/N=C/c1ccccc1OC(=O)c1ccc2c(c1)OCO2)c1ccccc1,–,active: 5.01 µM

# Looked up one by one from the entries so far:
Compound,"activity change, negative = inhibition",Potency
CCN(CC#CCC1(O)c2ccccc2-c2ccccc21)CCO,inactive: -6.15%,–
COc1ccc(Br)cc1S(=O)(=O)n1ccnc1C,–,"inconclusive: 0.112 µM [activator, full curve]"
O=C(C1CCN(c2nnc(-n3cccc3)s2)CC1)N1CCOCC1,–,"inconclusive: 1.12 µM [activator, single point]"

# Next part

Compound,"activity change, negative = inhibition",Potency
Cc1ccc(Oc2cnc3ccccc3n2)cc1,–,"inconclusive: 11.2 µM [inhibitor, partial curve]"
CC(=O)c1c(C)[nH]c(C(=O)OCc2ccc(F)cc2Cl)c1C,–,"inconclusive: 35.5 µM [inhibitor, single point]"
O=C(NCCSCc1ccco1)Nc1cccc(Cl)c1,inactive: -5.35%,–
Cc1cc(-n2c(C)cc(C(=O)CSc3ccc4c(c3)OCCO4)c2C)no1,–,"inconclusive: 12.6 µM [inhibitor, single point]"
Cc1ccc(NC(=O)COC(=O)C2CC2)c(Br)c1,inactive: 9.47%,–
O=c1[nH]c2c(s1)C(c1ccccc1)C1C3CCC(C3)C1S2 (stereo not given),–,"inconclusive: 3.16 µM [activator, single point]"
CSc1nc2ccc(S(=O)(=O)NC3CCCCC3)cc2s1,–,"inconclusive: 17.8 µM [inhibitor, partial curve]"
CSc1nnc2c(n1)OC=Nc1ccc(Br)cc1-2,inactive: -10.9% [at 9.22 µM],–
Cc1ccc(CN2C(=O)c3ccccc3NC23CCN(Cc2ccccc2)CC3)cc1,–,"inconclusive: 35.5 µM [inhibitor, single point]"
Cn1c(N2CCN(c3ccccn3)CC2)nc2c1c(=O)n(Cc1ccc(Cl)cc1)c(=O)n2C,–,"inconclusive: 35.5 µM [inhibitor, single point]"
CC(=O)N1CC(C)c2scc(C)[n+]2-c2ccccc21 (stereo not given),–,"inconclusive: 15.8 µM [activator, single point]"
O=C1NCCCc2c1oc1ccc(O)cc21,–,active: 22.4 µM
O=C(c1ccccc1)N1CCN2C(=O)c3ccccc3C12c1ccc(Cl)cc1 (stereo not given),–,"inconclusive: 5.62 µM [activator, single point]"
CCc1ccccc1NC(=O)/C(=C/c1ccccc1)c1ccccc1,–,"inconclusive: 0.891 µM [activator, partial curve]"
CC1CCC2C(=O)N(c3cccc(OS(=O)(=O)c4ccccc4)c3)C(=O)C2C1 (stereo not given),inactive: 13.1%,–
COc1ccc(N2CCN(c3oc(COc4ccc(Cl)cc4Cl)nc3C#N)CC2)cc1,–,"inconclusive: 1.26 µM [inhibitor, single point]"
O=[N+]([O-])c1cc(Cl)c2cccnc2c1O,–,"inconclusive: 25.1 µM [inhibitor, single point]"
CCOC(=O)C1=C(C)N=c2s/c(=C\c3ccncc3)c(=O)n2C1c1ccc2c(c1)OCO2 (stereo not given),inactive: 0.564%,–
Clc1cccc(/C=N\Nc2nccs2)c1,inactive: -23.4%,–
COc1ccc2c(c1)c(C(O)CN1CCN(Cc3ccc4c(c3)OCO4)CC1)c(C)n2C (stereo not given),–,"inconclusive: 35.5 µM [inhibitor, single point]"
CCCCC1C2=C(CC(C)(C)CC2=O)OC2=C1C(=O)CC(C)(C)C2,–,"inconclusive: 5.62 µM [inhibitor, single point]"
CC(=O)OCC1O[C@@H](O[C@@H]2C[C@H]3C(C)(C)[C@H](OC(C)=O)CC[C@]3(C)[C@H]3CC[C@]45C[C@]4(CC[C@H]5[C@@H](C)C[C@@H](O)[C@H](O)C(C)(C)O)[C@@]32C)[C@H](O)[C@@H](O)[C@@H]1O (stereo not given in full),–,"inconclusive: 35.5 µM [inhibitor, single point]"
